Results reported in publication PMC3375313.
No constants are given. Whether binding was seen depends on the method and setting. For some assays here: A result given as binding can be weak or reduced; the word gives no strength. Sequences can lack the tags named with a protein. For some assays here: Binding seen in cells or lysates may run through a third protein.

Columns and labels:
GST-TFT1 (tomato) [1] = molecular target: T1, GST-TFT1 (tomato) (UniProt P93206); assay: pull-down; GST or GST-TFT1 on glutathione sepharose beads incubated 2 h at 4°C with N. benthamiana leaf extract containing TARK1-HA and XopN-6His; 50 mM Tris pH 8, 150 mM NaCl, 2% glycerol, 1% Triton X-100; only the target purified
T1 sequence: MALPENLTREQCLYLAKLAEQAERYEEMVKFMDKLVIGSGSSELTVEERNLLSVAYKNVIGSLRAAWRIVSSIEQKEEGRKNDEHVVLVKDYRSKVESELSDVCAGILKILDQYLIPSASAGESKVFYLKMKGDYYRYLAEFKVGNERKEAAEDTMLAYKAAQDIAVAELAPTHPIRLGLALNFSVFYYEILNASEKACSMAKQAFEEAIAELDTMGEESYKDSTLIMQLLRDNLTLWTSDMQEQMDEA

GST-TFT1 (tomato) [2] = molecular target: T1, GST-TFT1 (tomato); assay: pull-down; GST-TFT1 on glutathione sepharose beads incubated 2 h at 4°C with N. benthamiana leaf extract containing TARK1-HA and XopN(S688A)-6His; same buffer; only the target purified
GST-TFT1 (tomato) [3] = molecular target: T1, GST-TFT1 (tomato); assay: pull-down; GST-TFT1 on glutathione sepharose beads incubated 2 h at 4°C with N. benthamiana leaf extract containing TARK1-HA and XopN(L64A,L65A)-6His; same buffer; only the target purified
[4] = molecular target: DBD-XopN (GAL4 DNA-binding domain fused to XopN 1–733) (Xanthomonas campestris pv. vesicatoria); assay: two-hybrid; GAL4-based, yeast AH109; DBD-XopN fusions (pXDGATcy86) as bait, AD-TFT1 or AD-TARK1CD (pGADT7) as prey; growth on SD-LTH ± 1 mM 3-amino-1,2,4-triazole, 30°C, 3 d
[5] = molecular target: DBD-XopN M5 (1–604) (Xanthomonas campestris pv. vesicatoria); assay: as above
[6] = molecular target: DBD-XopN M6 (1–514) (Xanthomonas campestris pv. vesicatoria); assay: as above
[7] = molecular target: DBD-XopN N (1–349) (Xanthomonas campestris pv. vesicatoria); assay: as above
[8] = molecular target: DBD-XopN(S688A) (Xanthomonas campestris pv. vesicatoria); assay: as above
[9] = molecular target: XopN(1–349)-6His (N-terminal domain) (Xanthomonas campestris pv. vesicatoria); assay: pull-down; Ni-NTA agarose pull-down of 6His-tagged XopN proteins from soluble extracts of N. benthamiana leaves co-expressing TFT1-HA or TARK1-HA (48 h); 50 mM NaH2PO4 pH 8.0, 150 mM NaCl, 10 mM imidazole, 2% glycerol, 1% Triton X-100; anti-His and anti-HA blots
[10] = molecular target: XopN(1–604)-6His (Xanthomonas campestris pv. vesicatoria); assay: as above
[11] = molecular target: XopN(L64A,L65A)-6His (Xanthomonas campestris pv. vesicatoria); assay: as above
[12] = molecular target: XopN(S688A)-6His (Xanthomonas campestris pv. vesicatoria); assay: as above
[13] = molecular target: XopN(S688D)-6His (Xanthomonas campestris pv. vesicatoria); assay: as above
[14] = molecular target: XopN(S688E)-6His (Xanthomonas campestris pv. vesicatoria); assay: as above
[15] = molecular target: XopN-6His (full-length) (Xanthomonas campestris pv. vesicatoria); assay: as above
[16] = molecular target: XopN-ΔM1/M2-6His (Xanthomonas campestris pv. vesicatoria); assay: as above
[17] = molecular target: XopN-ΔPEST-6His (Xanthomonas campestris pv. vesicatoria); assay: as above
[18] = molecular target: XopN(L64A,L65A)-nYFP (Xanthomonas campestris pv. vesicatoria); assay: split reporter; BiFC in N. benthamiana leaf epidermal cells, two Agrobacterium strains (nYFP fusion + cCFP fusion), confocal microscopy at 48 HPI
[19] = molecular target: XopN(S688A)-nYFP (Xanthomonas campestris pv. vesicatoria); assay: as above
[20] = molecular target: XopN-nYFP (Xanthomonas campestris pv. vesicatoria); assay: as above

XopN-6His (full-length) (Xanthomonas campestris pv. vesicatoria)
binding (GST-TFT1 (tomato) [1]): binds

XopN(S688A)-6His (Xanthomonas campestris pv. vesicatoria)
binding (GST-TFT1 (tomato) [2]): binds

XopN(L64A,L65A)-6His (Xanthomonas campestris pv. vesicatoria)
binding (GST-TFT1 (tomato) [3]): binds

B1: AD-TFT1 (GAL4 activation domain fused to TFT1) (protein, UniProt P93206 1-249)
chain: MALPENLTREQCLYLAKLAEQAERYEEMVKFMDKLVIGSGSSELTVEERNLLSVAYKNVIGSLRAAWRIVSSIEQKEEGRKNDEHVVLVKDYRSKVESELSDVCAGILKILDQYLIPSASAGESKVFYLKMKGDYYRYLAEFKVGNERKEAAEDTMLAYKAAQDIAVAELAPTHPIRLGLALNFSVFYYEILNASEKACSMAKQAFEEAIAELDTMGEESYKDSTLIMQLLRDNLTLWTSDMQEQMDEA
binding [4]: binds | binding [5]: no binding | binding [6]: no binding | binding [7]: no binding | binding [8]: no binding

B2: TFT1-HA (protein, UniProt P93206 1-249)
chain: MALPENLTREQCLYLAKLAEQAERYEEMVKFMDKLVIGSGSSELTVEERNLLSVAYKNVIGSLRAAWRIVSSIEQKEEGRKNDEHVVLVKDYRSKVESELSDVCAGILKILDQYLIPSASAGESKVFYLKMKGDYYRYLAEFKVGNERKEAAEDTMLAYKAAQDIAVAELAPTHPIRLGLALNFSVFYYEILNASEKACSMAKQAFEEAIAELDTMGEESYKDSTLIMQLLRDNLTLWTSDMQEQMDEA
binding [9]: binds weakly | binding [10]: no binding | binding [11]: binds | binding [12]: binds | binding [13]: binds | binding [14]: binds | binding [15]: binds | binding [16]: binds | binding [17]: binds

B3: TFT1-cCFP (protein, UniProt P93206 1-249)
chain: MALPENLTREQCLYLAKLAEQAERYEEMVKFMDKLVIGSGSSELTVEERNLLSVAYKNVIGSLRAAWRIVSSIEQKEEGRKNDEHVVLVKDYRSKVESELSDVCAGILKILDQYLIPSASAGESKVFYLKMKGDYYRYLAEFKVGNERKEAAEDTMLAYKAAQDIAVAELAPTHPIRLGLALNFSVFYYEILNASEKACSMAKQAFEEAIAELDTMGEESYKDSTLIMQLLRDNLTLWTSDMQEQMDEA
binding [18]: binds | binding [19]: binds weakly | binding [20]: binds
